Data: patent publication US8063225B2, “Tricyclic compound derivatives useful in the treatment of neoplastic diseases, inflammatory disorders and immunomodulatory disorders” (Chembridge Corporation, priority 2006, dated 2011)

How the values were obtained:
Assay type in all cases: cell-based
H929 (multiple myeloma) = test: Cell proliferation inhibition, Cell Titer-Glo, H929; settings: Homo sapiens, NCI-H929; cell proliferation assay, H929 cells
Procedure: (§1) IGF1R and other tyrosine kinase inhibitors can inhibit the proliferation of certain cancer cell lines indicating their possible therapeutic utility for treating the corresponding cancer types. Cancer cell lines of interest and control normal lines, including CHO, HEK293, BA/F3, MM1, H929, COLO205, PC3, DU145, MCF7, Panc1, ACHN, Hep G2, H460, K562, TT, U87-G, CAOV-3, SK-MEL5, Karpas 299, are plated in white, clear-bottomed 384-well cell culture plates at 2500-5000 cells per well and supplied with dilutions of tested compounds After a desired period of time (typically 3 days), the number of viable cells is quantitated by using Cell Titer-Glo Luminescent Cell Viability Assay (Promega), a cell proliferation assay system based on detection of total amount of ATP present as a measure of cell metabolic activity. The plated cells are mixed with the Cell Titer-Glo developing reagent and counted in a luminescence multiwell plate reader according to the standard manufacturer's protocol to generate IC50 curves for cell proliferation inhibition.
IGF1R and other tyrosine kinase inhibitors can inhibit the proliferation of certain cancer cell lines indicating their possible therapeutic utility for treating the corresponding cancer types. […] Alternatively, viable cells are quantitated by using the conventional colorimetric MTT assay. […]

Ba/F3 = test: Cell proliferation inhibition, Cell Titer-Glo, Ba/F3; settings: Mus musculus, BaF3; cell proliferation assay, Ba/F3 cells
Source text: as §1, with “BA/F3,” for “BA/F3, MM1, H929,”, “U87-MG,” for “U87-G,”, “299 and human multiple myeloma cell lines H929, MM1s, MM1r, UTMC2, CPM2, KMS11, My5, KMS12PE, My7, JJN3, KMS18, U266, SKMM2, RPMI-8226” for “299,”, “inhibition. […] Alternatively, viable cells are quantitated by using the conventional colorimetric MTT assay. […] The formazan is then solubilized, and the concentration determined by optical density at 570 nm. […]” for “inhibition.”

Karpas-299 = test: Cell proliferation inhibition, Cell Titer-Glo, Karpas-299; settings: Homo sapiens; cell proliferation assay, Karpas-299 cells
Source text: as §1, with “BA/F3,” for “BA/F3, MM1, H929,”, “U87-MG,” for “U87-G,”, “299 and human multiple myeloma cell lines H929, MM1s, MM1r, UTMC2, CPM2, KMS11, My5, KMS12PE, My7, JJN3, KMS18, U266, SKMM2, RPMI-8226” for “299,”, “inhibition. […] Alternatively, viable cells are quantitated by using the conventional colorimetric MTT assay. […] The formazan is then solubilized, and the concentration determined by optical density at 570 nm. […]” for “inhibition.”

Cc1ccc(OC[C@H](O)CNc2cc[nH]c(=O)c2-c2nc3cc4c(cc3[nH]2)C(=O)N(N2CCN(CCO)CC2)C4=O)c(C)c1 [compound 145]
IC50 (H929 (multiple myeloma)): 0.5 to 5 µM
IC50 (Ba/F3): > 15 µM
IC50 (Karpas-299): > 15 µM
